Source: paper PMC12286842
Results are given in words; binding and its absence hold for the method and conditions named. For part of these data: Binding seen in cells or lysates may run through a third protein. Some binding calls cover weakened binding; strength is not graded here.

The chains behind the UniProt entries cited, without tags or fusion partners. Where a name states a change or a piece, a line headed by the entry shows the natural chain unless it says otherwise. A line that says so, or that is headed by a name, gives the form on record, which may keep a tag or linker.
UniProt Q9P0J7: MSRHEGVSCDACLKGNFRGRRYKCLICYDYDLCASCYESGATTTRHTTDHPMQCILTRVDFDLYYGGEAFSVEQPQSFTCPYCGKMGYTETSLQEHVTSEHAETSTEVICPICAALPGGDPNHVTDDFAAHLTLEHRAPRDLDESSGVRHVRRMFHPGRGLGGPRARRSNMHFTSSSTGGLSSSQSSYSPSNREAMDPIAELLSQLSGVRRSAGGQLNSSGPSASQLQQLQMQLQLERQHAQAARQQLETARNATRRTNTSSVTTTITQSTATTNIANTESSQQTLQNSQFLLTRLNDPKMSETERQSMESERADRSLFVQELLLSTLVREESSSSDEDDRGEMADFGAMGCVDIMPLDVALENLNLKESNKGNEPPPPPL
KCMF1–Flag Q226/228/229/231/233E (Q9P0J7, form named): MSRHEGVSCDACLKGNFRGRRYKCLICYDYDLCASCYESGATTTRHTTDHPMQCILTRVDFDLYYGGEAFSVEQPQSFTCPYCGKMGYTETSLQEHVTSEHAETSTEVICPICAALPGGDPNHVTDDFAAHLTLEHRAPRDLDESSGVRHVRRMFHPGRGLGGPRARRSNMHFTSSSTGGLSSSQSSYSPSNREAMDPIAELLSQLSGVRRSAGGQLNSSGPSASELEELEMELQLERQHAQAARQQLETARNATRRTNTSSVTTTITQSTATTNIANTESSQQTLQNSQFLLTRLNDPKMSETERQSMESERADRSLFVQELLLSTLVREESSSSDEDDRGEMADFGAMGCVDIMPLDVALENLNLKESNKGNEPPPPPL
UniProt Q5T4S7: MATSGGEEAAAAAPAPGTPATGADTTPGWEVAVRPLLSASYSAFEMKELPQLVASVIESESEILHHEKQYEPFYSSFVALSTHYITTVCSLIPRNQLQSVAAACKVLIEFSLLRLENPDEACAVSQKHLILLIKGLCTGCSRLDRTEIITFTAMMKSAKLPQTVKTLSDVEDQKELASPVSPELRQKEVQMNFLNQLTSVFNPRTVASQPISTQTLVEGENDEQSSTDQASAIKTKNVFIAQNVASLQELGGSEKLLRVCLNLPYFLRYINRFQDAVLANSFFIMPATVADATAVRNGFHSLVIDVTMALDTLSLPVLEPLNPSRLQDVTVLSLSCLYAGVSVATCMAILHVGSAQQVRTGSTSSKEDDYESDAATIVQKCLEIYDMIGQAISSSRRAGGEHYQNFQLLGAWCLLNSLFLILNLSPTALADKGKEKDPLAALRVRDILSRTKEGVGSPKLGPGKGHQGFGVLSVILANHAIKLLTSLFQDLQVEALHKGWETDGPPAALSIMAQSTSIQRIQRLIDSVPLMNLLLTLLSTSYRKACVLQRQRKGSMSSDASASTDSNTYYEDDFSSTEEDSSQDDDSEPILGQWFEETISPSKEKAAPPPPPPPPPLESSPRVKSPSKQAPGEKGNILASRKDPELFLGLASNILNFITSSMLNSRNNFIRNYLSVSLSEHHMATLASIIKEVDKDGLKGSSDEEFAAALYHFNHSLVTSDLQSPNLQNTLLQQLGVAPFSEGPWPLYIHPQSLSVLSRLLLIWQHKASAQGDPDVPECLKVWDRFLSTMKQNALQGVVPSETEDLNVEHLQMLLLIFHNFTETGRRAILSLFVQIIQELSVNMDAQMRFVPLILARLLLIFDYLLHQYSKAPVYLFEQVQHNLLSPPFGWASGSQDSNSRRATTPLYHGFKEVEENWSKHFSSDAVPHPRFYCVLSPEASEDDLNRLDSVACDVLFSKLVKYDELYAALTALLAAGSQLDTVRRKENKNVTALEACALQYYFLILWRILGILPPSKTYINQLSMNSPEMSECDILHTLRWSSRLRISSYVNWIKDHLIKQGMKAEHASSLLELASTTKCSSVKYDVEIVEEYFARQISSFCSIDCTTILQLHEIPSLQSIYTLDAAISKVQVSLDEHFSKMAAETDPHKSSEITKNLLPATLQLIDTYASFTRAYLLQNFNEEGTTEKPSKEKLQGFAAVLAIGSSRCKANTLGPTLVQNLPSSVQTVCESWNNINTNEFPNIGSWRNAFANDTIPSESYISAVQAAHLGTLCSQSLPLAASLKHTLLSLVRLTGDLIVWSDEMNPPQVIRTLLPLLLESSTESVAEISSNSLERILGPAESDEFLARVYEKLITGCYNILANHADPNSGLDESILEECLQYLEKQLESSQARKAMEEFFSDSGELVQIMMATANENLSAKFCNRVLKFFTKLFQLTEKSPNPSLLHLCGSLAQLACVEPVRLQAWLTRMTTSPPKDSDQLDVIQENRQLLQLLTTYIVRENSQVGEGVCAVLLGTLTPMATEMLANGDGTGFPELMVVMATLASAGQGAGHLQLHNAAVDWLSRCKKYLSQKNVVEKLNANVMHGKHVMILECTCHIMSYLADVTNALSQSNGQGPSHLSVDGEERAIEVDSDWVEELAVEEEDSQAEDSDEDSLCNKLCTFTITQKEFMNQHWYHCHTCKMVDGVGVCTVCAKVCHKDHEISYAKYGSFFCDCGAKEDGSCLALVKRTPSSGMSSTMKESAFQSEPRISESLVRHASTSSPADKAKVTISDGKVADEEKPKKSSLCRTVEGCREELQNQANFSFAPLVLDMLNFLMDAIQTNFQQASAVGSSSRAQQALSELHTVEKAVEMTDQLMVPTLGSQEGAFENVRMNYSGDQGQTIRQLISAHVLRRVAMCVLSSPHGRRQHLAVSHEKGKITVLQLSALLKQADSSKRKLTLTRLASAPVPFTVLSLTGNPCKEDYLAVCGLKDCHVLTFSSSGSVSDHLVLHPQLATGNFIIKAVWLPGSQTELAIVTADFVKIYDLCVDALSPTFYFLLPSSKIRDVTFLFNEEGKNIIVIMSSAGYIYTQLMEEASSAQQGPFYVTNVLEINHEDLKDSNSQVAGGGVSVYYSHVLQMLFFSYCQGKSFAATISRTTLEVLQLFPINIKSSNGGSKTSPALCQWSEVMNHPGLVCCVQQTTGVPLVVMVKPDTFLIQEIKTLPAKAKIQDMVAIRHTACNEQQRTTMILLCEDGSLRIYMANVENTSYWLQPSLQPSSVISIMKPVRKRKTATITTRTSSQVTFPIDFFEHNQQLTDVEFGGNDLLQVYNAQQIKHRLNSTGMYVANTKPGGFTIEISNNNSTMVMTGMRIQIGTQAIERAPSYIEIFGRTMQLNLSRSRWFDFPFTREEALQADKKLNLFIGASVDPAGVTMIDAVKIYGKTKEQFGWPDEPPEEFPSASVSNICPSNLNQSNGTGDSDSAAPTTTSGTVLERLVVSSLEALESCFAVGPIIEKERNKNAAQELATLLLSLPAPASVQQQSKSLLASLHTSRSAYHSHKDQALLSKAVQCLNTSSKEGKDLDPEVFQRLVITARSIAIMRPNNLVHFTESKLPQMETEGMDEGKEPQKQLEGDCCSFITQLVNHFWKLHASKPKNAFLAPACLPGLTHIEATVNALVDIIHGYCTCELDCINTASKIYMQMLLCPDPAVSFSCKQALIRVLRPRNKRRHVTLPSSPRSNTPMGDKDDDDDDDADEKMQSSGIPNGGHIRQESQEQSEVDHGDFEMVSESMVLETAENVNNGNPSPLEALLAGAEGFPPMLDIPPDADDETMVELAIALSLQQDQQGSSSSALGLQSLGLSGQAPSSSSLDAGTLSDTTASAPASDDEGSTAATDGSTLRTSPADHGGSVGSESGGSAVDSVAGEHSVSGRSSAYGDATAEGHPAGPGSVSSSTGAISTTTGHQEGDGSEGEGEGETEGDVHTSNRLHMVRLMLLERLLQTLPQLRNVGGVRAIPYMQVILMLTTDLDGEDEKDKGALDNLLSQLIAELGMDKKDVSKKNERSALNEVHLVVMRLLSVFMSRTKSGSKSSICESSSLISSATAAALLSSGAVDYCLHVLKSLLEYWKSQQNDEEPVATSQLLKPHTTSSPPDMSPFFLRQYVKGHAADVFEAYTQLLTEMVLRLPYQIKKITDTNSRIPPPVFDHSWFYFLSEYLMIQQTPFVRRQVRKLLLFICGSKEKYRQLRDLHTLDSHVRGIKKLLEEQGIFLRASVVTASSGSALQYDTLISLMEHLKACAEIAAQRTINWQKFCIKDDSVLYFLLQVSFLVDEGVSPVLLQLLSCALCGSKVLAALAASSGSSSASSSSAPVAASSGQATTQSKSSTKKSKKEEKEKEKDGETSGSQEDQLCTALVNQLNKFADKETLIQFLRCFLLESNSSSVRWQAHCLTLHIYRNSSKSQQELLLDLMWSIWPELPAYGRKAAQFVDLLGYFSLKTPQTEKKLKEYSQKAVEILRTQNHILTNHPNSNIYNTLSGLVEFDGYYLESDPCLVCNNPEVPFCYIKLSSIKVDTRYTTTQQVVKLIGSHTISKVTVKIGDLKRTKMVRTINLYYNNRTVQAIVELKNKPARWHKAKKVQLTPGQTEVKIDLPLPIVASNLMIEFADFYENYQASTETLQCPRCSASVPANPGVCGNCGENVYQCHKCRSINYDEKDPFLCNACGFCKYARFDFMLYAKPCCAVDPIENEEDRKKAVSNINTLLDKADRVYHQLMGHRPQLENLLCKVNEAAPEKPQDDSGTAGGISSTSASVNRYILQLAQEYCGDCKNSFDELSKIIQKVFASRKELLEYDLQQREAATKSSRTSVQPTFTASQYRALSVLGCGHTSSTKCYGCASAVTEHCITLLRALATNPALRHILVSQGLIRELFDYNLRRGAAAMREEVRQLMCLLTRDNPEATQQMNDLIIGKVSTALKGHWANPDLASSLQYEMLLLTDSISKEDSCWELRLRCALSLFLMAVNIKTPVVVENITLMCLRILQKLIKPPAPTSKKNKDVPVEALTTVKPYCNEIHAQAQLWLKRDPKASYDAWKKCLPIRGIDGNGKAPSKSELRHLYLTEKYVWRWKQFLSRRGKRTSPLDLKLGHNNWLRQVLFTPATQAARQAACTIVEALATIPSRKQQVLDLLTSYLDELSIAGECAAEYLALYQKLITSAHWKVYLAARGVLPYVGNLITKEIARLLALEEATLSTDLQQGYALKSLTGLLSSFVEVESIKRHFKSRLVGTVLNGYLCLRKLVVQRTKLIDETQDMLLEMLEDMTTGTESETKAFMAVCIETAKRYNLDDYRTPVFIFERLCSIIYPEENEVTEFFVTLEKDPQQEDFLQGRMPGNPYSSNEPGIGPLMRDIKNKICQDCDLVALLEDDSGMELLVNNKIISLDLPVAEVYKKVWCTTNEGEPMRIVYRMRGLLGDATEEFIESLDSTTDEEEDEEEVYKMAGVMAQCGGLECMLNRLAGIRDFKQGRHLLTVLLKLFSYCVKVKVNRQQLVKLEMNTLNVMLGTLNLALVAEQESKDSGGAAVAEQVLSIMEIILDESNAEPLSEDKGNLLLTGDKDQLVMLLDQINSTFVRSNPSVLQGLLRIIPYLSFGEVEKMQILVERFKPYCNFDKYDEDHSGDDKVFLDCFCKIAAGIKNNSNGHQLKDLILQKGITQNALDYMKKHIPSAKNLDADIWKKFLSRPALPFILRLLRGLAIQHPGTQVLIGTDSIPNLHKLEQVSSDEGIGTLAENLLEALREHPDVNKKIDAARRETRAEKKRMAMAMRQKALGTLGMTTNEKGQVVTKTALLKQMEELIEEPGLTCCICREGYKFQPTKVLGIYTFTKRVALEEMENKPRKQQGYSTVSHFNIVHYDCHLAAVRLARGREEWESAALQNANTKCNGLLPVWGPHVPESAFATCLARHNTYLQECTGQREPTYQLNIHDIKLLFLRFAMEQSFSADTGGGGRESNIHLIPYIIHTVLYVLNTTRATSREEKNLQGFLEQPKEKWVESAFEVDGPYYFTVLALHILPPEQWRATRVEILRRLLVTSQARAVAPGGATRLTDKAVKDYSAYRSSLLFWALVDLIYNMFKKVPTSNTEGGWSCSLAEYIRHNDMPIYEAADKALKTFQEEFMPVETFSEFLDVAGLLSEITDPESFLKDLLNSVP

Legend:
[1] = target: Twin-Strep-II-tagged KCMF1 (human) (UniProt Q9P0J7); assay: cryo-EM structure; SIFI purified through Twin-Strep-II-tagged KCMF1 transiently expressed in Expi293F (Strep-Tactin XT, SEC); N-terminal partial map
[2] = target: KCMF1–Flag R316E/F319E/L323E/L325E (human) (UniProt Q9P0J7); assay: co-IP; anti-Flag M2 affinity purification of KCMF1–Flag variants from cell lysate (40 mM HEPES 7.5, 150 mM NaCl, 0.1% NP-40), Western blot for endogenous UBR4, ABHD10 or ABHD10^HA
[3] = target: KCMF1–Flag Q226/228/229/231/233E (human) (UniProt Q9P0J7); assay: as above
[4] = target: KCMF1–3×Flag (wild type) (human) (UniProt Q9P0J7); assay: as above
[5] = target: Flag–UBR4(ΔUBL) (human (endogenous in HEK293T)) (UniProt Q5T4S7); assay: co-IP; endogenous SIFI affinity-purified from WT or UBR4^ΔUBL cells, bound proteins detected by Western blot
[6] = target: Flag–UBR4 (UBR4 tagged at its endogenous locus) (human (endogenous in HEK293T)) (UniProt Q5T4S7); assay: cryo-EM structure; endogenous SIFI immunoprecipitated through tagged UBR4 from HEK293T and run on Superose 6 SEC; the complex formed in cells and was co-purified; single-particle cryo-EM, AF2 models fitted in low-resolution regions

Measured: binding

UBR4 (endogenous, untagged) (from UniProt Q5T4S7-1 1-5183) (enzyme)
binds: [1] | [2] | [3] | [4]

KCMF1 (endogenous) (from UniProt Q9P0J7 1-381) (enzyme)
binds: [5] | [6]
